These results are taken from patent publication US20130295021A1.

By UniProt entry, the sequences of proteins in these tests, tags left out. Where a name states a change or a piece, a line headed by the entry shows the natural chain unless it says otherwise.
UniProt P10636: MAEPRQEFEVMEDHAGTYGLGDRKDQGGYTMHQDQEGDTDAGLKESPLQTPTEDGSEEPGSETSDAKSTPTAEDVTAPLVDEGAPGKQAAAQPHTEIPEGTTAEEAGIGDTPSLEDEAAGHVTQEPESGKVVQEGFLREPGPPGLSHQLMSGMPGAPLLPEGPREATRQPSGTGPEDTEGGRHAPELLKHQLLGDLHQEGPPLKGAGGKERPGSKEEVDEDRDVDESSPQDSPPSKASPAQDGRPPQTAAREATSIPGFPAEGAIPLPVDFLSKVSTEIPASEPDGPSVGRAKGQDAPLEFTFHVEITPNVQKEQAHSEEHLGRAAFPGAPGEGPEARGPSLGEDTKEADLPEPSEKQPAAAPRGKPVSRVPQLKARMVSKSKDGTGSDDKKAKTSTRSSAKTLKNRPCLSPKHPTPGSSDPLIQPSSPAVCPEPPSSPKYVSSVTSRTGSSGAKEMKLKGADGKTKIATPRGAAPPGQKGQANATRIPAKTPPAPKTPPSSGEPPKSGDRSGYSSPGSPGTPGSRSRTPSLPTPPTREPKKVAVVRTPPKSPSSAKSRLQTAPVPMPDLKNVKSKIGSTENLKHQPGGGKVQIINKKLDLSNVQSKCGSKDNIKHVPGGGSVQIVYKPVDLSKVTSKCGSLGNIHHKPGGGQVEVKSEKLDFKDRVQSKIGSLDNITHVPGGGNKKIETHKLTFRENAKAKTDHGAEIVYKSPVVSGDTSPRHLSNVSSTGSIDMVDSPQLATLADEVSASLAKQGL

No constants are given. Whether binding was seen depends on the method and setting. Some results given as binding are weak or reduced against the parent protein; the word gives no strength.

For test [1], the target named is PHFTau, paired helical filaments containing pathologically phosphorylated tau filaments extracted from AD brain (human) (UniProt P10636). Kind of test: Western blot after SDS-PAGE. On the technique in general: In western blotting, separated proteins are transferred to a membrane and probed.
Test [2] has as its target T1, hTau40 PepSpot peptides 96 and 97 (amino acids 387-397 of hTau40 as stated) (human).
T1 sequence (peptide): DHGAEIVYKSP
Kind of test: PepSpot peptide array (legend of FIG. 4).

Test [3] concerns the target T2, hTau40 PepSpot peptides 83, 84 and 85 (covering amino acids 329-351 of hTau40) (human).
T2 sequence (peptide): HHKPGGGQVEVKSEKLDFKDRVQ
The experiment in a line: PepSpot peptide array (legend of FIG. 4).

For test [4], the target named is T1, hTau40 PepSpot peptides 96 and 97 (amino acids 387-397 of hTau40 as stated) (human). Kind of test: PepSpot peptide array, 100 nM antibody.
The target of test [5] is T2, hTau40 PepSpot peptides 83, 84 and 85 (covering amino acids 329-351 of hTau40) (human). The experiment in a line: PepSpot peptide array, 100 nM antibody.

B1: recombinant human tau antibody NI-105.24B2 (antibody, human IgG1, V domains shown)
VH: QVQLVQSGAEVKKPGASVKVSCKASGYTFVNYIIHWVRQAPGQGLEWMGIINPNGGNTSYAEKFQARVTLTSDTSTSTVYMDLSSLTSEDTAVYYCAVLSPSNPWGQGTTVTVSS
VL: SYELTQPPSVSVSPGQTAGITCSGDALPKQFVYWYQKKPGQAPVLLIYKDTERPSRIPERFSGSTSGTTVALTINGVQAEDEADYYCQSADRSGALWVFGGGTKLTVL
With B1, the binding entry in test [1] was “binds”.

B2: recombinant human tau antibody NI-105.4E4 (antibody, V domains shown)
VH: EVQLVESGGGLVQPGGSLKLSCAASGFNFNISAIHWVRQASGKGLEWVGRIRSKSHNYATLYAASLKGRFTLSRDDSRNTAYLQMSSLQTEDMAVYYCTVLSANYDTFDYWGQGTLVTVSS
VL: SYELTQPPSVSVSPGQTARISCFGDTLPKQYTYWYQQKPGQAPVLVIYKDTERPSGIPERFSGSSSGTTVTLTISGVQAEDEADYYCLSADNSATWVFGGGTKVTVL
For B2, the binding entry in test [2], in test [3], in test [4] and in test [5] was “binds” throughout.
